The labels stand for the following.
B1: Rasgrf2 (protein, UniProt Q99JE4 1-1190)
chain: MQKSVRYNEGHALYLAFLARKEGTKRGFLSKKAAEASRWHEKWFALYQNVLFYFEGEQSGRPAGMYLLEGCSCERTPAPPRTNAGPAGARDALDKQYYFTVLFGHEGQKPLELRCEEEQAGKEWMEAIHQASYADILIEREVLMQKYIHLVQIVETEKIAANQLRHQLEDQDTEIERLKSEIVALNKTKERMRPYHTHQEEEDPDIKKIKKVQSFMRGWLCRRKWKTIVQDYICSPHAESMRKRNQIVFTMVEAESEYVHQLYILVNGFLRPLRMAASSKKPPISHDDVSSIFLNSETIMFLHEIFHQGLKARLANWPTLVLADLFDILLPMLNIYQEFVRNHQYSLQVLANCKQNRDFDKLLKQYEGNPACEGRMLETFLTYPMFQIPRYIITLHELLAHTPHEHVERKSLEFAKSKLEELSRVMHDEVSDTENIRKNLAIERMIVEGCDILLDTSQTFIRQGSLIQVPSVERGKLSKVRLGSLSLKKEGERQCFLFTKHFLICTRSSGGKLHLLKTGGVLSLIQCTLIEEPDTSDDDTKGPGHMFGHLDFKIVVEPPDAAPFTVVLLAPSRQEKAAWMSDISQCVDNIRCNGLMTIVFEENSKVTVPHMIKSDARLHKDDTDICFSKTLNSCKVPQIRYASVERLLERLTDLRFLSIDFLNTFLHTYRIFTTAAVVLGKLSDIYKRPFTSIPVRSLELFFATSQNNREHLVDGKSPRLCRKFSSPPPLAVSRTSSPVRARKLSLTSSLNSRIGALDLTTSSSSSSPTTTVHSPAASPPPHTAVPESAPADRAGDSTDMSPCRSPSTTPRHLRYRQPGGQVADSTHCAVSPASAFAIATAAAGHGSPPGFNNERTCDKEFIIRRTATNRVLNVLRHWVSKHSQDFELNNELKMNVLNLLEEVLRDPDLLPQERKATANILRALSQDDQDDIHLKLEDIIQMTDCPKAECFETLSAMELAEQITLLDHIVFRSIPYEEFLGQGWMKLDKNERTPYIMKTSQHFNEMSNLVASQIMNYADISSRANAIEKWVAVADICRCLHNYNGVLEITSALNRSAIYRLKKTWTKVSKQTKALMDKLQKTVSSEGRFKNLRETLKNCNPPAVPYLGMYLTDLAFIEEGTPNFTEEGLVNFSKMRMISHIIREIRQFQQTAYRIDQQPKVIQYLLDKALVIDEDTLYELSLKIEPRLPA
B2: Fam120a (protein, UniProt D4AB03 1-1116)
chain: MGVQGFQDYIEKHCPSAVVPVELQKLARGSLVGGGRQRPPQTPLRLLVDADNCLHRLYGGFYTDWVSGGQWNHMLGYLAALAKACFGGNIELFVFFNGALEKARLHEWVKRQGNERQTAQQIVSHVQNKGTPPPKVWFLPPVCMAHCIRLALIRFHVKVAQSIEDHHQEVIGFCRENGFHGLVAYDSDYALCNIPYYFSAHALKLSRNGKSLTTSQYLMHEVAKQLDLNPNRFPIFAALLGNHILPDEDLASFHWSLLGPEHPLASLKVRAHQLVLPPCDVVIKAVADYVRNIHDTSDLDAIAKDVFQHSQSRTDDKVIRFKRAVGYYSATSKPMPFHPPHYLPRPNPFGMPGMVPPYVPPQMLNIPQTSLQAKPAVPQVPSPGGTPGQAPYPYSLPEPALALDSSGKNLTEQNSYSNIPHEGKHTPLYERSSPINLAQSGSPNHVDSAYFPGSSTSSSSDNDEGSGGATNHISGNKIGWEKTGSHAEPLARGDPGDQVKVEGSSTASSGSQLAEGKGSHMGTVQPIPCLLSMPTRNHMDITTPPLPPVAPEVLRVAEHRHKKGLMYPYIFHVLTKGEIKIAVSIEDEANKDLPPAALLYRPVRQYVYGVLFSLAESRKKTERLAFRKNRLPPEFSPLIIKEWAAYKGKSPQTPELVEALAFREWTCPNLKRLWLGKAVEDKNRRMRAFLACMRSDTPAMLNPANVPTHLMVLCCVLRYMVQWPGARILRRQELDAFLAQALSPKLYEPDQLQELKIENLDPRGIQLSALFMSGVDMALFANDACGQPIPWEHCCPWMYFDGKLFQSKLLKASREKTPLIDLCDGQAEQAAKVEKMRQSILEGLNFSRQNHPLPFPPPPALPFYPASVYPRHFGPVPPSQGRGRGFAGVCGFGGHYGETVATGPYRAFRVTAASGHCGAFSGSDSNRTSKSQGGVQPIPSQGGKLEIAGTVVGHWAGSRRGRGGRGPFPLQVVSVGGPARGRPRGVISTPVIRTFGRGGRYYGRGYKSQGAIQGRPPYAASAEEVAKELKSKSGESKSSAVSSEGSLAENGVMAEEKPVPQLNGSTADTRAPSHSESALNNDSKTCNTNPHLNALSTDSACRREAALEAAVLNKEE
B3: Pkp4 (protein, UniProt F1M2K6 1-1146)
chain: MEELQFQRLTRELEVERQIVASQLERCRLGAESPSIASTSSTEKSFPWRSTDVPNTGVSKPRVSDTVHPNNYLIRTEPEQGALYSPEQTSLHERSLGNSRSSTQMNSYSDSGYQEAGSFHNSQTVNKADSRQHPFTGSTSNHVVRNSRAEGQTLVQPSVANRAMRRVSSVPSRAQSPSYVTSTGVSPSRGSLRTSLGSGFGSPSVTDSRPLNPSTYSSSTLPAQRAASPYSQRPASPTAVRRVGSVTSRQTSNPNGPVPQYQTTTRVGSPLTLTDAQTRVASPSQGQVGSSSPKRSGMTAVPQHLGPSLQRTVHDMDQFGQQQYDIYERMVPPRPDSLTGLRSSYASQHSQLGQDLRSAVSPDLHITPIYEGRTYYSPVYRSPNHGTVELQGSQTALYRTGSVGIGNLQRTSSQRSTLTYQRNNYALNTAATYAEPYRPVQYRVQECSYNRLPHTGPADDGATRSPSIDSIQKDPREFAWRDPELPEVIHMLQHQFPSVQANAAAYLQHLCFGDNKVKMEVYRLGGIKHLVDLLDHRVLEVQKNACGALRNLVFGKSTDENKIAMKNVGGIPALLRLLRKSIDAEVRELVTGVLWNLSSCDAVKMTIIRDALSTLTNTVIVPHSGWNDSSFDDDHKIKFQTSLVLRNTTGCLRNLSSAGEEARKQMRSCEGLVDSLLYVIHTCVNTSDYDSKTVENCVCTLRNLSYRLELEVPQARLLGLNELDDLLGKESPSKDSEPSCWGKKKKKKKRTPQEDQWDGVGPIPGLSKSPKGVEMLWHPSVVKPYLTLLAESSNPATLEGSAGSLQNLSAGNWKFAAYIRAAVRKEKGLPILVELLRMDNDRVVSSVATALRNMALDVRNKELIGKYAMRDLVNRLPGGNGPSILSDETVAAICCALHEVTSKNMENAKALADSGGIEKLVNITKGRGDRSSLKVVKAAAQVLNTLWQYRDLRSIYKKDGWNQNHFITPVSTLERDRFKSHPSLSTTNQQMSPVIQSVGSTSSSPALLGIREPRSEYDRTQPPMQYYNSQGDTTHKGLYPGSSKPSPIYISSYSSPAREQNRRLQHQQLYYQDDSTRKTLDAYRLYLQSPRSYEDPYGDDRVHFPASTDYSTQYGLKSTTNYVDFYSTKRPSYRAEQYPGSPDSWV
B4: Thrap3 (protein, UniProt Q5M7V8 1-951)
chain: MSKTNKSKSGSRSSRSRSASRSRSRSFSKSRSRSRSVSRSRKRRLSSRSRSRSYSPAHNRERNHPRVYQNRDFRGHNRGYRRPYYFRGRNRGFYPWGQYNRGGYGNYRSNWQNYRQAYSPRRGRSRSRSPKRRSPSPRSRSHSRNSDKSSSDRSRRSSSSRSSSNHSRVESSKRKSTKEKKSSSKDSRPSQAAGDNQGDEAKEQTFSGGTSQDIKGSESSKPWPDATTYGTGSASRASVSDLSPRERSPALKSPLQSVVVRRRSPRPSPVPKPSPPLSNASQMGSSMSGGAGYQSGAHQGPFDHGSGSLSPSKKSPVGKSPPATGSAYGSSQKEESAASGGAAYTKRYLEEQKTENGKDKEQKQTNTDKEKLKEKGGFSDADVKMKSDPFAPKTDTEKPFRGSQSPKRYKLRDDFEKKMADFHKEEMDEQDKDKCKGRKEPEFDDEPKFISKVIAGASKNQEEEKSGKWESLHAGKEKQRKAEELEEEPFTERSRKEERGGSKRSESGHRGFVPEKNFRVTAYKAVQEKSSSPPPRKTSESRDKLGNKGDFSSGKSSFSITREAQVNVRMDSFDEDLARPSGLLAQERKLCRDLVHSNKKEQEFRSIFQHIQSAQSQRSPSELFAQHIVTIVHHVKEHHFGSSGMTLHERFTKYLKRGNEQEAAKTKKSPEIHRRIDISPSTFRKHGLTHEELKSPREPGYKAEGKYKDDPVDLRLDIERRKKHKERDLKRGKSRESVDSRDSSHSRERSTEKTEKTHKGSKKQKKHRRARDRSRSSSSSSQSSHSYKAEEYPEEAEDREESTTGFDKSRLGTKDFVGPNERGGRARGTFQFRARGRGWGRGNYSGNNNNNSNNDFQKRSREEEWDPEYTPKSKKYYLHDDREGEGSDKWMSRGRGRGAFPRGRGRFMFRKSSTSPKWAHDKFSGEEGEIEDDESGTENREEKDSLQPSAE
B5: Nup153 (protein, UniProt P49791 1-1468)
chain: MASGAGGIGGGGGGGKIRTRRCHQGPVKPYQQGRPQHQGILSRVTESVKNIVPGWLQRYFNKSENACSCSVNADEVPRWPENREDEREIYVDENTNTDDGRTTPEPTGSNTEEPSTTSTASNYPDVLTRPSLHRSHLNFSVLESPALHCQPSTSSAFPIGSSGFSLVKEIKDSTSQHDDDNISTTSGFSSRASEKDIAVSKNTSLPPLWSPEAERSHSLSQHTAISSKKPAFNLSAFGTLSTSLGNSSILKTSQLGDSPFYPGKTTYGGAAAAVRQNKVRSTPYQAPVRRQMKAKQLNAQSYGVTSSTARRILQSLEKMSSPLADAKRIPSAVSSPLNSPLDRSGIDSTVFQAKKEKVDSQYPPVQRLMTPKPVSIATNRTVYFKPSLTPSGDLRKTNQRIDKKNSTVDEKNISRQNREQESGFSYPNFSIPAANGLSSGVGGGGGKMRRERTTHFVASKPSEEEEVEVPLLPQISLPISSSSLPTFNFSSPAISAASSSSVSPSQPLSNKVQMTSLGSTGNPVFTFSSPIVKSTQADVLPPASIGFTFSVPLAKTELSGPNSSSETVLSSSVTAQDNTVVNSSSSKKRSAPCEDPFTPAKILREGSVLDILKTPGFMSPKVDSPALQPTTTSSIVYTRPAISTFSSSGVEFGESLKAGSSWQCDTCLLQNKVTDNKCIACQAAKLPLKETAKQTGIGTPSKSDKPASTSGTGFGDKFKPAIGTWDCDTCLVQNKPEAVKCVACETPKPGTGVKRALPLTVASESPVTASSSTTVTTGTLGFGDKFKRPVGSWECPVCCVSNKAEDSRCVSCTSEKPGLVSASSSNSVPVSLPSGGCLGLDKFKKPEGSWDCEVCLVQNKADSTKCIACESAKPGTKSEFKGFGTSSSLNPAPSAFKFGIPSSSSGLSQTFTSTGNFKFGDQGGFKLGTSSDSGSTNTMNTNFKFPKPTGDFKFGVLPDSKPEEIKNDSKNDNFQFGPSSGLSNPASSAPFQFGVSTLGQQEKKEELPQSSSAGFSFGAGVANPSSAAIDTTVTSENKSGFNFGTIDTKSVSVTPFTYKTTEAKKEDASATKGGFTFGKVDSAALSSPSMFVLGRTEEKQQEPVTSTSLVFGKKADNEEPKCQPVFSFGNSEQTKDESSSKPTFSFSVAKPSVKESDQLAKATFAFGNQTNTTTDQGAAKPAFSFLNSSSSSSSTPATSSSASIFGSSTSSSSPPVAAFVFGQASNPVSSSAFGNSAESSTSQPLLFPQDGKPATTSSTASAAPPFVFGTGASSNSTVSSGFTFGATTTSSSSGSFFVFGTGHSAPSASPAFGANQTPTFGQSQGASQPNPPSFGSISSSTALFSAGSQPVPPPTFGTVSSSSQPPVFGQQPSQSAFGSGTANASSVFQFGSSTTNFNFTNNNPSGVFTFGASPSTPAAAAQPSGSGGFSFSQSPASFTVGSNGKNMFSSSGTSVSGRKIKTAVRRKK

Chains of the proteins cited; added tags and fusions are not shown.
UniProt Q9NZV8: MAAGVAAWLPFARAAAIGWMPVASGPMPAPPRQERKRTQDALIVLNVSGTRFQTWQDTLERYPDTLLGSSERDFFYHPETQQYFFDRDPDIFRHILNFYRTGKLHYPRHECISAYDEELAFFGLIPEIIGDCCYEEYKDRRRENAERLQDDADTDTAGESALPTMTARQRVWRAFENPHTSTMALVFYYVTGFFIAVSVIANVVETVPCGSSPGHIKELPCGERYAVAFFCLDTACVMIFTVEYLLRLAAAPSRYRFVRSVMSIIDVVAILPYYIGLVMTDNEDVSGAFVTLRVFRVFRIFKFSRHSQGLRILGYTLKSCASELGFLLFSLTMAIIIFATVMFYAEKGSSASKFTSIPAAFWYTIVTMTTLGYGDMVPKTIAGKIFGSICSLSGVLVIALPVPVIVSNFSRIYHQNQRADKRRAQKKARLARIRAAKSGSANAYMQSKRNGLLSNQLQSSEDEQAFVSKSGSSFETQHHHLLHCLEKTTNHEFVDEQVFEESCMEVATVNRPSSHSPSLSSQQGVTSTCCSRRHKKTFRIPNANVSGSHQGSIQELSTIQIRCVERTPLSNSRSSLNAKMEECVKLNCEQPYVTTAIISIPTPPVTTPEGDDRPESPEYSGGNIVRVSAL

No constants are given. Whether binding was seen depends on the method and setting. In cells and extracts the contact can be indirect. These calls come from enrichment with a bait or labelling near it, and not all partners need be listed.

The experiment deals with TAP-Kv4.2 (human) (UniProt Q9NZV8). Description: affinity purification with mass spectrometry; TAP-Kv4.2 expressed by lentivirus in rat hippocampal neurons, harvested at DIV14; strong lysis buffer (1% Triton X-100, 0.5% deoxycholate in PBS, pH 7.4); streptavidin resin, then calmodulin resin; gel cut into high and low molecular weight fragments; no MS of the control sample.
B1: the binding entry is listed as “binds”. As to B2, the binding entry is listed as “binds”. As for B3, the entry is “binds”; as for B4, “binds”.

In the case of B5, the binding entry is given as “binds”.

Values taken from PMC9788671.
